Results deposited as PubChem BioAssay AID652243 (Drosophila RNAi Screening Center, 2013).
Test: 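Knock-downs that decrease or increase androgen receptor reporter signal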 (primary screen). Cells: Drosophila S2R+ cells. Knock-down reagent: long dsRNA against Drosophila genes. Duration: 72 h (48 h, then 24 h hormone). Challenge: synthetic androgen R1881 at 10 nM for 24 h. Measured: 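Per-well raw luminescence of the androgen-driven firefly reporter and of the Renilla control, two replicates each, without normalisation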. Direction: firefly reporter light: higher = more light from androgen-responsive reporter; Renilla control light: higher = more constitutive control signal (cell number, transfection). Rule for the call: 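Across duplicate plates, a knock-down whose log firefly/Renilla ratio shifted a set fold down or up from the GFP/LacZ control mean was a hit; the downward cut appears as both 1.5 and 3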. Meaning of the calls: active = hit: reporter lowered or raised; inactive = no hit.
The screen tested about 24,000 reagents; shown is an unselected part of those with a known target gene and a result. In the full data, 246 (1%) are marked active. 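Plates not normalised; calls are printed but the firefly/Renilla ratio behind them is not deposited; fold cut for lowering reported inconsistently.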 Raw values are not corrected between plates. A plus sign joins genes that one reagent is predicted to hit. Not stated in the record: the amount of reagent.

Gene,dsRNA,"firefly reporter light, replicate 1","firefly reporter light, replicate 2","Renilla control light, replicate 1","Renilla control light, replicate 2",Outcome
CG3788,DRSC04418,3.28e5,2.89e5,2.08e6,1.62e6,inactive
CG3788,DRSC24502,8.38e5,9.14e5,1.16e6,1.09e6,inactive
Map205 (Microtubule-associated protein 205),DRSC16732,46934,36712,4.29e5,3.18e5,inactive
Map205 (Microtubule-associated protein 205),DRSC27322,5.31e5,5.21e5,7.42e5,8.09e5,inactive
Rep (Rab escort protein),DRSC07526,1.18e6,1.07e6,1.32e6,1.38e6,inactive
CG32640 + CG32641,DRSC22885,5.37e5,8.34e5,26348,27458,inactive
ebd2 (earthbound 2),DRSC11682,90660,1.77e5,1.22e6,1.60e6,inactive
ebd2 (earthbound 2),DRSC28502,4.20e5,7.05e5,1.02e6,1.23e6,inactive
CG8534,DRSC16439,1.19e5,1.11e5,1.92e6,2.13e6,inactive
CG16952,DRSC19759,6.16e5,5.90e5,4.65e6,1.81e6,inactive
ppk25 (pickpocket 25),DRSC04973,2.67e5,2.01e5,2.03e6,1.30e6,inactive
ppk25 (pickpocket 25),DRSC27513,2.70e5,2.24e5,2.83e5,6.06e5,inactive
CG12236,DRSC17831,2.51e5,2.72e5,2.14e6,2.54e6,inactive
CG12236,DRSC25773,2.23e5,3.44e5,6.01e5,3.65e5,inactive
ND-13B (NADH dehydrogenase (ubiquinone) 13 kDa B subunit),DRSC10643,2.73e5,1.81e5,2.18e6,1.43e6,inactive
ND-13B (NADH dehydrogenase (ubiquinone) 13 kDa B subunit),DRSC29920,3.74e5,3.03e5,1.13e6,1.31e6,inactive
E(bx) (Enhancer of bithorax),DRSC08172,1.31e5,1.86e5,9.17e5,1.05e6,inactive
E(bx) (Enhancer of bithorax),DRSC08509,99301,97914,4.77e5,6.51e5,inactive
E(bx) (Enhancer of bithorax),DRSC08583,1.11e6,1.14e6,5.89e5,5.26e5,inactive
CG13693,DRSC00362,1.39e5,1.43e5,6.90e5,1.29e6,inactive
CG13693,DRSC25981,4.08e5,2.52e5,8.55e5,5.20e5,inactive

Sorted by “Renilla control light, replicate 2” (ascending): 3 of the entries above
Gene,dsRNA,"firefly reporter light, replicate 1","firefly reporter light, replicate 2","Renilla control light, replicate 1","Renilla control light, replicate 2",Outcome
CG32640 + CG32641,DRSC22885,5.37e5,8.34e5,26348,27458,inactive
Map205 (Microtubule-associated protein 205),DRSC27322,5.31e5,5.21e5,7.42e5,8.09e5,inactive
Rep (Rab escort protein),DRSC07526,1.18e6,1.07e6,1.32e6,1.38e6,inactive

Further entries:
Gene,dsRNA,"firefly reporter light, replicate 1","firefly reporter light, replicate 2","Renilla control light, replicate 1","Renilla control light, replicate 2",Outcome
CG30392,DRSC22341,9.96e5,9.65e5,7.52e5,6.61e5,inactive
udd (under-developed),DRSC06720,2.18e5,2.84e5,1.18e6,9.18e5,inactive
Ndf (Nucleosome-destabilizing factor),DRSC02775,8.51e5,1.05e6,1.26e6,1.51e6,inactive
CG30385,DRSC06031,3.46e5,2.94e5,1.60e6,1.65e6,inactive
Miga (Mitoguardin),DRSC17821,2.36e5,2.30e5,1.86e6,2.73e6,inactive
CG7896,DRSC16335,94278,75022,7.04e5,5.53e5,inactive
CG15406,DRSC00420,98279,1.09e5,8.58e5,9.40e5,inactive
CG15406,DRSC28108,4.38e5,4.27e5,1.90e6,1.35e6,inactive
CG4872,DRSC19921,71346,83234,6.35e5,4.99e5,inactive
CG5194,DRSC10492,7.65e5,5.18e5,1.17e6,1.00e6,inactive
CG17652,DRSC00511,1.23e5,1.14e5,1.08e6,8.93e5,inactive
mdu (meduse),DRSC23192,1.03e6,9.06e5,2.02e6,1.68e6,inactive
mdu (meduse),DRSC28604,5.04e5,3.10e5,1.05e6,1.03e6,inactive
Ogg1 (8-oxoguanine DNA glycosylase),DRSC17738,74533,1.20e5,6.54e5,5.92e5,inactive
CG8509,DRSC20109,1.00e5,1.06e5,6.07e5,6.82e5,inactive
CG8509,DRSC36817,,,,,inactive
CG32428,DRSC11697,2964,4436,14136,42824,inactive
CG32428,DRSC11768,2.93e5,3.06e5,2.76e6,2.51e6,inactive
CG32428,DRSC25993,3.67e5,4.38e5,9.83e5,7.99e5,inactive
Cp38 (Chorion protein 38),DRSC18453,3.96e5,4.70e5,3.09e6,2.94e6,inactive
Or69a (Odorant receptor 69a),DRSC11243,1.85e5,1.41e5,1.40e6,1.64e6,inactive
Or69a (Odorant receptor 69a),DRSC25967,3.35e5,4.09e5,9.68e5,9.87e5,inactive
CG9519,DRSC20195,80786,96443,5.58e5,8.11e5,inactive
CG9519,DRSC28137,5.43e5,3.89e5,1.94e6,1.42e6,inactive
CG17145,DRSC10247,2.43e5,2.43e5,2.01e6,1.87e6,inactive
CG33640,DRSC38916,7.93e5,7.21e5,1.85e6,2.01e6,inactive
Muc55B (Mucin 55B),DRSC21440,1.03e6,9.04e5,2.43e6,2.25e6,inactive
Muc55B (Mucin 55B),DRSC27913,5.23e5,3.57e5,2.03e6,1.23e6,inactive
CG13796,DRSC24686,9.29e5,1.17e6,9.80e5,9.78e5,inactive
CG1441,DRSC06448,6.93e5,5.16e5,2.43e6,1.89e6,inactive
CG1441,DRSC27028,3.16e5,3.95e5,6.72e5,5.75e5,inactive
Girdin,DRSC08292,1.12e5,56429,1.55e6,8.68e5,inactive
und (uninitiated),DRSC03629,7.70e5,6.76e5,1.79e6,1.37e6,inactive
Bub1 (Bub1 kinase),DRSC23158,5.70e5,7.39e5,1.05e6,1.26e6,inactive
Bub1 (Bub1 kinase),DRSC27436,3.03e5,3.58e5,6.23e5,6.37e5,inactive
Bub1 (Bub1 kinase),DRSC36838,,,,,inactive
Bub1 (Bub1 kinase),DRSC36839,,,,,inactive
